{"source": "patent EP4588908A1", "about": "“NEW PROSTACYCLIN FOR TREATING PULMONARY HYPERTENSION” (Shanghai Forefront Pharma Co., Ltd., priority 2023, dated 2025)", "assay": "Body weight of MCT-modelled PAH rats under intragastric administration", "type": "in vivo, Sprague-Dawley rats", "conditions": "Day 14 = start of intragastric dosing, mean ± spread"}
{"smiles": "CCCCC[C@H](O)CC[C@@H]1[C@H]2Cc3cccc(OCC(=O)O)c3C[C@H]2C[C@H]1O", "note": "[Compound C1, Treprostinil sodium 5.5-hydrate]", "values": [{"measurement": "Body weight on Day 14 (g)", "setting": "3 mg/kg/day group", "value": "430+34.15 g"}, {"measurement": "Body weight on Day 14 (g)", "setting": "6 mg/kg/day group", "value": "413+15.81 g"}]}
{"smiles": "CCCCC[C@H](O)CC[C@H]1[C@H](O)[C@@H](CC)[C@@H]2Cc3c(cccc3OCC(=O)O)C[C@@H]21", "note": "[Compound 1]", "values": [{"measurement": "Body weight on Day 14", "setting": "3 mg/kg/day group", "value": "428 ± 29.90", "unit": "g"}]}
